Some of the results follow.
Columns and labels:
Assay in all cases: glycan array binding signal (z-score within array); higher = stronger binding
Details in all cases: glycan notation: IUPAC condensed, linker removed
[1] = target: Gal(b1-4)GlcNAc(b1-2)[Gal(b1-4)GlcNAc(b1-6)]Man(a1-6)[Gal(b1-4)GlcNAc(b1-2)Man(a1-3)]Man(b1-4)GlcNAc(b1-4)[Fuc(a1-6)]GlcNAc
In short: (§1)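 Negative Z-scores can be read as non-binding. The Z-score is calculated within each array and then averaged across arrays of one protein sequence at different concentrations or buffers and across linkers. Arrays, 3228 in all, were curated from the Consortium for Functional Glycomics database and kept only where the protein sequence was available.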

[2] = target: Gal(b1-4)GlcNAc(b1-2)[Gal(b1-4)GlcNAc(b1-6)]Man(a1-6)[GlcNAc(b1-4)][Gal(b1-4)GlcNAc(b1-2)Man(a1-3)]Man(b1-4)GlcNAc(b1-4)GlcNAc
In short: as §1

[3] = target: Gal(b1-4)GlcNAc(b1-2)[Gal(b1-4)GlcNAc(b1-6)]Man(a1-6)[GlcNAc(b1-4)][Gal(b1-4)GlcNAc(b1-2)[Gal(b1-4)GlcNAc(b1-4)]Man(a1-3)]Man(b1-4)GlcNAc(b1-4)[Fuc(a1-6)]GlcNAc
In short: as §1

[4] = target: Gal(b1-4)GlcNAc(b1-3)Gal(b1-3)GalNAc
In short: as §1

[5] = target: Gal(b1-4)GlcNAc(b1-3)Gal(b1-3)GlcNAc
In short: as §1

[6] = target: Gal(b1-4)GlcNAc(b1-3)Gal(b1-4)Glc
In short: as §1

[7] = target: Gal(b1-4)GlcNAc(b1-3)Gal(b1-4)GlcNAc
In short: as §1

[8] = target: Gal(b1-4)GlcNAc(b1-3)Gal(b1-4)GlcNAc(b1-2)Man(a1-3)[Gal(b1-4)GlcNAc(b1-3)Gal(b1-4)GlcNAc(b1-2)Man(a1-6)]Man(b1-4)GlcNAc(b1-4)GlcNAc
In short: as §1

[9] = target: Gal(b1-4)GlcNAc(b1-3)Gal(b1-4)GlcNAc(b1-2)Man(a1-3)[Gal(b1-4)GlcNAc(b1-3)Gal(b1-4)GlcNAc(b1-2)Man(a1-6)]Man(b1-4)GlcNAc(b1-4)[Fuc(a1-6)]GlcNAc
In short: as §1

[10] = target: Gal(b1-4)GlcNAc(b1-3)Gal(b1-4)GlcNAc(b1-2)[Gal(b1-4)GlcNAc(b1-3)Gal(b1-4)GlcNAc(b1-6)]Man(a1-6)[Gal(b1-4)GlcNAc(b1-3)Gal(b1-4)GlcNAc(b1-2)Man(a1-3)]Man(b1-4)GlcNAc(b1-4)GlcNAc
In short: as §1

[11] = target: Gal(b1-4)GlcNAc(b1-3)Gal(b1-4)GlcNAc(b1-2)[Gal(b1-4)GlcNAc(b1-3)Gal(b1-4)GlcNAc(b1-6)]Man(a1-6)[Gal(b1-4)GlcNAc(b1-3)Gal(b1-4)GlcNAc(b1-2)Man(a1-3)]Man(b1-4)GlcNAc(b1-4)[Fuc(a1-6)]GlcNAc
In short: as §1

[12] = target: Gal(b1-4)GlcNAc(b1-3)Gal(b1-4)GlcNAc(b1-3)Gal(b1-4)GlcNAc
In short: as §1

[13] = target: Gal(b1-4)GlcNAc(b1-3)Gal(b1-4)GlcNAc(b1-3)Gal(b1-4)GlcNAc(b1-2)Man(a1-3)[Gal(b1-4)GlcNAc(b1-3)Gal(b1-4)GlcNAc(b1-3)Gal(b1-4)GlcNAc(b1-2)Man(a1-6)]Man(b1-4)GlcNAc(b1-4)GlcNAc
In short: as §1

[14] = target: Gal(b1-4)GlcNAc(b1-3)Gal(b1-4)GlcNAc(b1-3)Gal(b1-4)GlcNAc(b1-2)Man(a1-3)[Gal(b1-4)GlcNAc(b1-3)Gal(b1-4)GlcNAc(b1-3)Gal(b1-4)GlcNAc(b1-2)Man(a1-6)]Man(b1-4)GlcNAc(b1-4)[Fuc(a1-6)]GlcNAc
In short: as §1

[15] = target: Gal(b1-4)GlcNAc(b1-3)Gal(b1-4)GlcNAc(b1-3)Gal(b1-4)GlcNAc(b1-2)[Gal(b1-4)GlcNAc(b1-3)Gal(b1-4)GlcNAc(b1-3)Gal(b1-4)GlcNAc(b1-6)]Man(a1-6)[Gal(b1-4)GlcNAc(b1-3)Gal(b1-4)GlcNAc(b1-3)Gal(b1-4)GlcNAc(b1-2)Man(a1-3)]Man(b1-4)GlcNAc(b1-4)[Fuc(a1-6)]GlcNAc
In short: as §1

[16] = target: Gal(b1-4)GlcNAc(b1-3)Gal(b1-4)GlcNAc(b1-3)Gal(b1-4)GlcNAc(b1-3)Gal(b1-4)GlcNAc(b1-2)Man(a1-3)[Gal(b1-4)GlcNAc(b1-3)Gal(b1-4)GlcNAc(b1-3)Gal(b1-4)GlcNAc(b1-3)Gal(b1-4)GlcNAc(b1-2)Man(a1-6)]Man(b1-4)GlcNAc(b1-4)GlcNAc
In short: as §1

[17] = target: Gal(b1-4)GlcNAc(b1-3)Gal(b1-4)GlcNAc(b1-3)Gal(b1-4)GlcNAc(b1-3)Gal(b1-4)GlcNAc(b1-2)Man(a1-3)[Gal(b1-4)GlcNAc(b1-3)Gal(b1-4)GlcNAc(b1-3)Gal(b1-4)GlcNAc(b1-3)Gal(b1-4)GlcNAc(b1-2)Man(a1-6)]Man(b1-4)GlcNAc(b1-4)[Fuc(a1-6)]GlcNAc
In short: as §1

[18] = target: Gal(b1-4)GlcNAc(b1-3)Gal(b1-4)GlcNAc(b1-3)Gal(b1-4)GlcNAc(b1-3)Gal(b1-4)GlcNAc(b1-2)[Gal(b1-4)GlcNAc(b1-3)Gal(b1-4)GlcNAc(b1-3)Gal(b1-4)GlcNAc(b1-3)Gal(b1-4)GlcNAc(b1-6)]Man(a1-6)[Gal(b1-4)GlcNAc(b1-3)Gal(b1-4)GlcNAc(b1-3)Gal(b1-4)GlcNAc(b1-3)Gal(b1-4)GlcNAc(b1-2)Man(a1-3)]Man(b1-4)GlcNAc(b1-4)[Fuc(a1-6)]GlcNAc
In short: as §1

[19] = target: Gal(b1-4)GlcNAc(b1-3)Gal(b1-4)GlcNAc(b1-3)Gal(b1-4)GlcNAc(b1-3)Gal(b1-4)GlcNAc(b1-3)Gal(b1-4)GlcNAc(b1-2)Man(a1-3)[Gal(b1-4)GlcNAc(b1-3)Gal(b1-4)GlcNAc(b1-3)Gal(b1-4)GlcNAc(b1-3)Gal(b1-4)GlcNAc(b1-3)Gal(b1-4)GlcNAc(b1-2)Man(a1-6)]Man(b1-4)GlcNAc(b1-4)GlcNAc
In short: as §1

[20] = target: Gal(b1-4)GlcNAc(b1-3)Gal(b1-4)GlcNAc(b1-3)Gal(b1-4)GlcNAc(b1-3)Gal(b1-4)GlcNAc(b1-3)Gal(b1-4)GlcNAc(b1-2)Man(a1-3)[Gal(b1-4)GlcNAc(b1-3)Gal(b1-4)GlcNAc(b1-3)Gal(b1-4)GlcNAc(b1-3)Gal(b1-4)GlcNAc(b1-3)Gal(b1-4)GlcNAc(b1-2)Man(a1-6)]Man(b1-4)GlcNAc(b1-4)[Fuc(a1-6)]GlcNAc
In short: as §1

[21] = target: Gal(b1-4)GlcNAc(b1-3)Gal(b1-4)GlcNAc(b1-3)Gal(b1-4)GlcNAc(b1-3)Gal(b1-4)GlcNAc(b1-3)Gal(b1-4)GlcNAc(b1-2)[Gal(b1-4)GlcNAc(b1-3)Gal(b1-4)GlcNAc(b1-3)Gal(b1-4)GlcNAc(b1-3)Gal(b1-4)GlcNAc(b1-3)Gal(b1-4)GlcNAc(b1-6)]Man(a1-6)[Gal(b1-4)GlcNAc(b1-3)Gal(b1-4)GlcNAc(b1-3)Gal(b1-4)GlcNAc(b1-3)Gal(b1-4)GlcNAc(b1-3)Gal(b1-4)GlcNAc(b1-2)Man(a1-3)]Man(b1-4)GlcNAc(b1-4)[Fuc(a1-6)]GlcNAc
In short: as §1

[22] = target: Gal(b1-4)GlcNAc(b1-3)Gal(b1-4)GlcNAc(b1-3)Gal(b1-4)GlcNAc(b1-3)Gal(b1-4)GlcNAc(b1-3)Gal(b1-4)GlcNAc(b1-3)Gal(b1-4)GlcNAc(b1-2)Man(a1-3)[Gal(b1-4)GlcNAc(b1-3)Gal(b1-4)GlcNAc(b1-3)Gal(b1-4)GlcNAc(b1-3)Gal(b1-4)GlcNAc(b1-3)Gal(b1-4)GlcNAc(b1-3)Gal(b1-4)GlcNAc(b1-2)Man(a1-6)]Man(b1-4)GlcNAc(b1-4)GlcNAc
In short: as §1

[23] = target: Gal(b1-4)GlcNAc(b1-3)Gal(b1-4)GlcNAc(b1-3)GalNAc
In short: as §1

B1: cFel (Cyprinus carpio), P68512 (protein)
chain: LDCTVIDGNLKQIDAGSGSVVGVNNLNETFVLIDNVFTKISGSLKHFSVGPAGQLGVNTANNIFKYQSGGFVQLAGLLKQVDAGGDQIIAGVNMYDDIYCLNMDANNKWPSSNTPWVQINGKLKYYSCGPYSCWGVNSNDQIFIMKDVSSNVCSGSGSFINIPGLLSMIEVATDGSVFGVNSQGNLYQRTGVTRSKPDGTDWISMVACPNGHKHVSFDLGVLWLVCVDGSIRKCILTD
For B1, the “glycan array binding signal (z-score)” value [1] was -0.656, the “glycan array binding signal (z-score)” value [2] was -1.88 and the “glycan array binding signal (z-score)” value [3] was -0.835. The “glycan array binding signal (z-score)” value [4] was 0.126, the “glycan array binding signal (z-score)” value [5] was -0.036 and the “glycan array binding signal (z-score)” value [6] was -0.024. The “glycan array binding signal (z-score)” value [7] was 0.86, the “glycan array binding signal (z-score)” value [8] was -0.317 and the “glycan array binding signal (z-score)” value [9] was -0.29. For the same binder, the “glycan array binding signal (z-score)” value [10] was 1.5, the “glycan array binding signal (z-score)” value [11] was -0.622 and the “glycan array binding signal (z-score)” value [12] was -0.529. The “glycan array binding signal (z-score)” value [13] was 0.409, the “glycan array binding signal (z-score)” value [14] was -0.8 and the “glycan array binding signal (z-score)” value [15] was 0.105. The “glycan array binding signal (z-score)” value [16] was 1.01, the “glycan array binding signal (z-score)” value [17] was -0.084 and the “glycan array binding signal (z-score)” value [18] was 1.24. The “glycan array binding signal (z-score)” value [19] was -0.612, the “glycan array binding signal (z-score)” value [20] was 1.98 and the “glycan array binding signal (z-score)” value [21] was 0.142. The “glycan array binding signal (z-score)” value [22] was -0.504 and the “glycan array binding signal (z-score)” value [23] was -0.089.

— the supplement of paper PMC8728848
